Reference: PubChem BioAssay AID493014 (National Center for Advancing Translational Sciences (NCATS), 2011)
The other results are listed elsewhere or left out. Shown are side measurements of this screen, not its main read-out; they come without a call. The list favours compounds with an active or inconclusive main result. Potencies come from curve fits of mixed quality, noted in brackets.

Assay: qHTS Assay to Find Inhibitors of Chronic Active B-Cell Receptor Signaling
Details: ABC-DLBCL IkBa-CBG/CBR reporter, luminescence ratio (green luciferase fused to IkBa over red control in TMD8 lymphoma cells), 4 h
Outline: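 Doxycycline induced both beetle luciferases in TMD8 lymphoma cells; IKK-driven degradation limits the IkappaBalpha-fused green signal, while red luminescence normalises for cell number and nonspecific effects. Compounds tested up to 46 uM, 4 hrs.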

[1] = measured here: CBR red luminescence, cell number
[2] = measured here: IkBa-CBG green luminescence

Q: Which AC50 [1] does the source give for `Cc1cccc(OCc2nnc(N)s2)c1C` here?
A: 35.5 µM [falling, single point]

Q: With `CC(C)(C)NC(=O)CSc1ncccc1-c1nc2ccccc2[nH]1` as the molecule, how does the AC50 [1] read?
A: 7.08 µM [falling, partial curve]

Q: With `O=C(CSc1cccc2cccnc12)Nc1ccccc1F` as the molecule, how does the AC50 [1] read?
A: 15.8 µM [falling, partial curve, poor fit]

Q: Which AC50 [1] does the source give for `Cc1ccc(COC(=O)c2nn(C)c(=O)c3ccccc23)cc1` here?
A: 2.82 µM [rising, full curve]

Q: With `CC1=NN(c2ccc(C)c(C)c2)C(=O)/C1=C/c1ccc2c(c1)n(C)c(=O)n2C` as the molecule, how does the AC50 [2] read?
A: 2.31 µM [rising, partial curve, poor fit]

Q: Which AC50 [1] does the source give for `Cc1ccc(N2C(=O)N3[C@H](c4ccc(Br)cc4)[C@@H]4C(=O)N(C(C)(C)C)C(=O)[C@@H]4[C@]3(C)C2=O)cc1` here?
A: 35.5 µM [falling, single point]

Q: With `COc1ccccc1-c1nc(N)n[nH]1` as the molecule, how does the AC50 [1] read?
A: 4.47 µM [falling, partial curve]

Q: For `O=C(CN1CCOCC1)N/N=C/C(Br)=C\c1ccccc1`, which AC50 [1] is on record?
A: 15.8 µM [rising, single point]

Q: With `CCOC(=O)N1CCN(Cc2c(O)ccc3ccccc23)CC1` as the molecule, how does the AC50 [1] read?
A: 35.5 µM [falling, single point]

Q: Which AC50 [1] does the source give for `O=C(C1CCN(S(=O)(=O)c2cccnc2)CC1)N1CCCCC1` here?
A: 13 µM [rising, partial curve, poor fit]

Q: For `O=C(COc1ccc(Br)cc1)Nc1ccc(N2CCOCC2)cc1N1CCOCC1`, which AC50 [1] is on record?
A: 3.26 µM [rising, partial curve, poor fit]

Q: With `O=C(O)c1ccccc1NS(=O)(=O)c1ccccc1C(F)(F)F` as the molecule, how does the AC50 [1] read?
A: 0.0651 µM [falling, full curve, poor fit]

Q: For `COc1ccc(CNC(=O)Cn2nc([N+](=O)[O-])c(Br)c2C)cc1OC`, which AC50 [1] is on record?
A: 3.98 µM [rising, full curve, poor fit]

Q: For `Cc1c(Cl)c(C(=O)NNC(=S)Nc2ccc(F)cc2)nn1C`, which AC50 [1] is on record?
A: 12.6 µM [falling, partial curve, poor fit]

Q: Which AC50 [1] does the source give for `CC(C)Sc1cc(N2CCCC2)nc(-c2ccc(F)cc2)n1` here?
A: 35.5 µM [falling, single point]

Q: For `O=C(c1ccccc1)N1N=C(C(F)(F)F)CC1(O)c1ccc(F)cc1` (stereo unspecified), which AC50 [1] is on record?
A: 11.2 µM [falling, partial curve]

Q: For `CN(C)C(=O)OCC1COc2ccccc2O1` (stereo unspecified), which AC50 [1] is on record?
A: 35.5 µM [rising, single point]

Q: Which AC50 [1] does the source give for `C=CCN1C(=O)c2cccc3c(Br)ccc(c23)C1=O` here?
A: 2.51 µM [falling, partial curve, poor fit]

Q: For `Cc1occc1-c1nc(-c2ccncc2)no1`, which AC50 [1] is on record?
A: 2.06 µM [rising, full curve, poor fit]

Q: Which AC50 [1] does the source give for `Cc1c(NC(=O)c2cc(-n3cnnc3)ccc2Cl)cccc1-c1nc2ccccc2o1` here?
A: 1.3 µM [falling, full curve]

Q: Which AC50 [1] does the source give for `CCOc1cc(CNc2ccc3c(c2)OCCO3)cc(Br)c1OCC(N)=O` here?
A: 35.5 µM [falling, single point]

Q: For `COc1ccc(COc2cc(-c3cccc(OC)c3)nc3ccc(NC(=O)c4ccc(C)cc4)cc23)cc1`, which AC50 [1] is on record?
A: 23.1 µM [rising, partial curve, poor fit]

Q: What about the AC50 [2] of the same molecule?
A: 18.4 µM [falling, single point]

Q: With `COc1cc(/C(C)=C/c2ccccc2)c2c(c1)oc1ccccc12` as the molecule, how does the AC50 [1] read?
A: 5.62 µM [rising, partial curve, poor fit]

Q: Which AC50 [1] does the source give for `COc1ccc(-c2nnc(SCC(=O)NCCc3ccccc3)o2)cc1` here?
A: 4.11 µM [rising, full curve, poor fit]

Q: Which AC50 [1] does the source give for `CCCCOC(=O)Nc1ccc(S(=O)(=O)Nc2onc(C)c2C)cc1` here?
A: 1.26 µM [rising, partial curve, poor fit]

Q: With `NC(=O)c1ccsc1NC(=O)CCS(=O)(=O)c1ccc(F)cc1` as the molecule, how does the AC50 [1] read?
A: 14.6 µM [falling, partial curve, poor fit]

Q: With `Cc1c(Br)c([N+](=O)[O-])nn1CC(=O)N1CCCc2ccccc21` as the molecule, how does the AC50 [1] read?
A: 16.4 µM [rising, partial curve, poor fit]

Q: For `CCOc1cc(O)c(-c2[nH]ncc2-c2nc(C)cs2)cc1CC`, which AC50 [1] is on record?
A: 35.5 µM [falling, single point]

Q: For `Cc1cccc(N/C=C/C(=O)c2ccc(Cl)cc2)c1`, which AC50 [1] is on record?
A: 7.08 µM [falling, partial curve]

Q: With `COc1cccc(-c2onc3ccc(C(C)=O)cc23)c1` as the molecule, how does the AC50 [1] read?
A: 0.631 µM [falling, full curve, poor fit]

Q: With `COc1cc(CCCN2C(N)=NC[C@@H]2Cc2ccccc2)cc(OC)c1OC` as the molecule, how does the AC50 [1] read?
A: 35.5 µM [rising, single point]

Q: With `Cc1nn(-c2ccccc2)c(C)c1/C=N/NC(=O)c1cnccn1` as the molecule, how does the AC50 [1] read?
A: 0.562 µM [rising, full curve, poor fit]

Q: For `CCOc1ccccc1C(=O)Nc1cc(Cl)ccc1O`, which AC50 [1] is on record?
A: 29.1 µM [falling, single point]

Q: With `Nc1ccc(S(=O)(=O)N2CCC(Cc3ccccc3)CC2)cc1` as the molecule, how does the AC50 [1] read?
A: 0.398 µM [rising, partial curve, poor fit]

Q: For `O=C(NN1CCOCC1)c1ccc(Cl)cc1`, which AC50 [1] is on record?
A: 32.6 µM [rising, partial curve, poor fit]

Q: Which AC50 [1] does the source give for `COC(=O)Cc1c(C)c2ccc(OCC(=O)N3CCC(C)CC3)c(C)c2oc1=O` here?
A: 20 µM [falling, single point]

Q: For `CCN(CC)S(=O)(=O)c1ccc(Nc2nc3ccccc3n3nnnc23)cc1`, which AC50 [1] is on record?
A: 0.231 µM [falling, full curve]

Q: With `COCC1CCCCN1C(=O)c1ccc2nc(Cc3ccc(OC)c(OC)c3)oc2c1` (stereo unspecified) as the molecule, how does the AC50 [1] read?
A: 35.5 µM [falling, single point]

Q: For `COc1ccc(NC(=O)c2oc3ccccc3c2NC(=O)C(C)(C)C)cc1`, which AC50 [1] is on record?
A: 25.9 µM [falling, partial curve]

Q: For `CCOC(=O)C1=C(C)OC(N)=C(C#N)C1c1ccc(C)o1` (stereo unspecified), which AC50 [1] is on record?
A: 0.082 µM [rising, full curve, poor fit]

Q: For `CCO[C@@H]1OC(C(=O)NCc2nc3ccccc3[nH]2)=C[C@H](c2csc3ccccc23)[C@H]1CCCO`, which AC50 [1] is on record?
A: 12.6 µM [falling, single point]

Q: For `CC1(C)Cc2c(C#N)c(NCC3CCCO3)nc(-c3ccco3)c2CO1` (stereo unspecified), which AC50 [1] is on record?
A: 0.411 µM [falling, full curve]

Q: For `COc1ccc(/C=C/c2cc(C(=O)O)c3ccccc3n2)cc1`, which AC50 [1] is on record?
A: 1.41 µM [falling, full curve, poor fit]

Q: Which AC50 [1] does the source give for `O=C(Nc1ccc(-c2cn3c(n2)SCC3)cc1)c1ccco1` here?
A: 3.55 µM [rising, partial curve]

Q: For `CCCC1C(c2ccc(OC)cc2)C(C#N)(C#N)C2(C#N)CC1(N)NC2=O` (stereo unspecified), which AC50 [1] is on record?
A: 31.6 µM [rising, partial curve, poor fit]

Q: Which AC50 [1] does the source give for `CCc1nnc(SCC(=O)Nc2nccs2)n1CC` here?
A: 17.8 µM [falling, partial curve, poor fit]

Q: Which AC50 [1] does the source give for `CSc1cccc(NC(=O)C2CCN(S(C)(=O)=O)CC2)c1` here?
A: 0.731 µM [rising, full curve, poor fit]

Q: For `Cc1ccc(C)c(S(=O)(=O)Nc2ccc(C(=O)N3CCCCC3)cc2)c1`, which AC50 [1] is on record?
A: 35.5 µM [rising, single point]

Q: For `NC(=O)C(c1ccccc1)c1ccc(C(=O)c2ccccc2)cc1` (stereo unspecified), which AC50 [1] is on record?
A: 11.2 µM [falling, single point]

Q: With `CN1C(=O)/C(=C/C=C2\SCCN2C)SC1=S` as the molecule, how does the AC50 [1] read?
A: 5.8 µM [rising, full curve, poor fit]

Q: For `C=CCC1(CC=C)CCCN1C(=O)C1CCC(=O)N(CCc2ccc(Cl)cc2)C1` (stereo unspecified), which AC50 [1] is on record?
A: 17.8 µM [falling, single point]

Q: For `CCOC(=O)c1c(-c2ccc(OC)cc2)csc1NC(=O)CNCc1ccco1`, which AC50 [1] is on record?
A: 1.78 µM [falling, full curve, poor fit]

Q: With `O=C(NCc1cccnc1)c1ccc(CS(=O)(=O)c2ccc(Br)cc2)o1` as the molecule, how does the AC50 [1] read?
A: 18.4 µM [rising, single point]

Q: Which AC50 [1] does the source give for `COc1ccccc1NS(=O)(=O)c1cc(NC(=O)CC(C)(C)C)ccc1N1CCOCC1` here?
A: 35.5 µM [rising, single point]

Q: Which AC50 [1] does the source give for `CCN(Cc1ccccc1)C(=O)c1cc2c(=O)oc3ccc(C)cc3c2s1` here?
A: 6.51 µM [falling, single point]

Q: Which AC50 [1] does the source give for `COc1cc2oc(=O)cc(-c3ccc(-c4ccc(C#N)cc4)cc3)c2c(OC)c1OC` here?
A: 20.6 µM [rising, partial curve, poor fit]

Q: Which AC50 [1] does the source give for `CCOc1ccc(-c2cc(CCCC(=O)NCc3ccc(C)cc3)no2)cc1` here?
A: 1.3 µM [falling, full curve, poor fit]

Q: Which AC50 [1] does the source give for `COc1ccc(/C=C/C(=O)c2ccc(NC3=NCCCS3)cc2)cc1OC` here?
A: 20 µM [falling, partial curve, poor fit]

Q: For `Cn1cc(SCC(=O)NC2CCCCC2)c2ccccc21`, which AC50 [1] is on record?
A: 17.8 µM [falling, partial curve, poor fit]

Q: With `COc1ccc(-c2nnc(SCC(=O)c3cccs3)o2)c(OC)c1` as the molecule, how does the AC50 [1] read?
A: 11.2 µM [falling, single point]

Q: For `N#C/C(=N\Nc1ccc(Cl)cc1)C(=O)c1ccsc1`, which AC50 [1] is on record?
A: 31.6 µM [falling, single point]

Q: With `COCCNC(=O)c1ccc(C2SCC(=O)N2CCc2ccccc2)cc1` (stereo unspecified) as the molecule, how does the AC50 [1] read?
A: 25.1 µM [rising, single point]

Q: For `Cc1ccc(-c2nc(CN(C)Cc3cccc4cnccc34)c(C)o2)s1`, which AC50 [1] is on record?
A: 1.58 µM [rising, partial curve, poor fit]

Q: For `COc1ccc(OC)c(C2=Nn3c(nnc3-c3cc(OC)c(OC)c(OC)c3)SC2)c1`, which AC50 [1] is on record?
A: 15.8 µM [falling, partial curve]

Q: With `COc1ccc2[nH]c(=O)c(CN(Cc3ccco3)Cc3nnnn3Cc3ccccc3)cc2c1` as the molecule, how does the AC50 [1] read?
A: 3.16 µM [falling, single point]
